# Percent effect of library compounds

Sequences of proteins named here, by UniProt entry; tags and fusion partners are left off. Residues count along the entry.
UniProt P9WNZ1, whole entry: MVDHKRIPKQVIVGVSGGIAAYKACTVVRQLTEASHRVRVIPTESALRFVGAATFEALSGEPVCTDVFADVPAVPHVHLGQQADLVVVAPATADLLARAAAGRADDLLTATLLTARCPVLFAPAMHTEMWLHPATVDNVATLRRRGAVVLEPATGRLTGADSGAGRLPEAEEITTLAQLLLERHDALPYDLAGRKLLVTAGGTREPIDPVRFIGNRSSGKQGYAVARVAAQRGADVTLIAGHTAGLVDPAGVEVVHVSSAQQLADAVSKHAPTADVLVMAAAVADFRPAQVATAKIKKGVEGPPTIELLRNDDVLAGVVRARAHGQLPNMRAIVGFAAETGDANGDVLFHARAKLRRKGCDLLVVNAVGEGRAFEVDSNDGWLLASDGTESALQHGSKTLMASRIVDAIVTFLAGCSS
UniProt I6X8D2, whole entry: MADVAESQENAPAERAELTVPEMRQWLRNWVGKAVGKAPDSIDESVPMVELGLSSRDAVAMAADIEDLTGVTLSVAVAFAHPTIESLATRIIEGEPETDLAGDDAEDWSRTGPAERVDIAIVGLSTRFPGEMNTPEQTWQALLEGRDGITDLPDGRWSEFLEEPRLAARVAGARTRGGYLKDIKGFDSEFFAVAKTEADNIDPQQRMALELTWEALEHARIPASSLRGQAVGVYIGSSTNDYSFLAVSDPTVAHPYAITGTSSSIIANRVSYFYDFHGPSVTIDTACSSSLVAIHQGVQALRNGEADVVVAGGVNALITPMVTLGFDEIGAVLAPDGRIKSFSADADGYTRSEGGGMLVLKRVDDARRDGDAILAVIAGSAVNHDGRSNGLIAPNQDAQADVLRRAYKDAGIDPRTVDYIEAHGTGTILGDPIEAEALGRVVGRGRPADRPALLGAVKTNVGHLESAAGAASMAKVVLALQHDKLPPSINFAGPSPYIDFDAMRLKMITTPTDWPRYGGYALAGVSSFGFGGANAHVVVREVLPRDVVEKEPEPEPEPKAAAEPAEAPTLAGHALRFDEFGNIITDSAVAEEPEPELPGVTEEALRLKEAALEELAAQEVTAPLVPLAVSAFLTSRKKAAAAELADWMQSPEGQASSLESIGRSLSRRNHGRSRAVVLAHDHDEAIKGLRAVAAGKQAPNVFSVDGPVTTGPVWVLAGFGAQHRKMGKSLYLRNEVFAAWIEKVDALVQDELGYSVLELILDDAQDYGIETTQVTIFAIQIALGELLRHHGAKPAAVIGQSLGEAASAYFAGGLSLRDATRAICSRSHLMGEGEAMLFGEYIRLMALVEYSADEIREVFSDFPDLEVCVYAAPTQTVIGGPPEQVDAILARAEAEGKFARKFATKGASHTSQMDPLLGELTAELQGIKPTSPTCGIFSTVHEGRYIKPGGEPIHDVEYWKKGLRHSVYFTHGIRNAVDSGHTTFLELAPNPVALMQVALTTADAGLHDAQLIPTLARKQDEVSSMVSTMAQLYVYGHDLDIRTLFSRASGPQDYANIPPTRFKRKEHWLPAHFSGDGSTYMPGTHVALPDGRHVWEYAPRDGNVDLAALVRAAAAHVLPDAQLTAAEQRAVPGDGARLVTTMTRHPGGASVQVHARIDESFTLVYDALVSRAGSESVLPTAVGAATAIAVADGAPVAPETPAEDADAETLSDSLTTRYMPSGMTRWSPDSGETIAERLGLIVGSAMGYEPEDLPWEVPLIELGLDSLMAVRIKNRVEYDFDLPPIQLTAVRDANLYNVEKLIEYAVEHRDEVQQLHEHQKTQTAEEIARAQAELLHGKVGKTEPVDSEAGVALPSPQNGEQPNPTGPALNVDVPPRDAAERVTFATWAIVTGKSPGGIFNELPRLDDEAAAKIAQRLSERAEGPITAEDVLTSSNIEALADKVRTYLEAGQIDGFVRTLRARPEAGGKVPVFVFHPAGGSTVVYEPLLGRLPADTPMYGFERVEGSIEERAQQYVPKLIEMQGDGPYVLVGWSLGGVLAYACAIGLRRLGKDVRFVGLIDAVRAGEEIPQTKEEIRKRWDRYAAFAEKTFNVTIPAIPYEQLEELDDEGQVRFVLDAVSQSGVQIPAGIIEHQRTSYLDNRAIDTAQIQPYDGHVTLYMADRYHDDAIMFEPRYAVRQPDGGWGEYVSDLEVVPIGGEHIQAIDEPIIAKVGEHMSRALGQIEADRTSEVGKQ
UniProt P9WFT3, whole entry: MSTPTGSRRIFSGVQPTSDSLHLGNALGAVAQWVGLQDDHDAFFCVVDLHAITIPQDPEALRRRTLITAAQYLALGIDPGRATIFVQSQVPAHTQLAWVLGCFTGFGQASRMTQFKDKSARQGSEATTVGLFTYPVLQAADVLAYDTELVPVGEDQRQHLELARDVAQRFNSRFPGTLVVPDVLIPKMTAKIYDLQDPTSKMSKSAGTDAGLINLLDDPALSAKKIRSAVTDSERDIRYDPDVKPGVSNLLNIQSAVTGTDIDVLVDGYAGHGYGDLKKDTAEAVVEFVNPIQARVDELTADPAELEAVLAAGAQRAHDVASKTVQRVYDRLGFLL
UniProt A4I591, 1-473: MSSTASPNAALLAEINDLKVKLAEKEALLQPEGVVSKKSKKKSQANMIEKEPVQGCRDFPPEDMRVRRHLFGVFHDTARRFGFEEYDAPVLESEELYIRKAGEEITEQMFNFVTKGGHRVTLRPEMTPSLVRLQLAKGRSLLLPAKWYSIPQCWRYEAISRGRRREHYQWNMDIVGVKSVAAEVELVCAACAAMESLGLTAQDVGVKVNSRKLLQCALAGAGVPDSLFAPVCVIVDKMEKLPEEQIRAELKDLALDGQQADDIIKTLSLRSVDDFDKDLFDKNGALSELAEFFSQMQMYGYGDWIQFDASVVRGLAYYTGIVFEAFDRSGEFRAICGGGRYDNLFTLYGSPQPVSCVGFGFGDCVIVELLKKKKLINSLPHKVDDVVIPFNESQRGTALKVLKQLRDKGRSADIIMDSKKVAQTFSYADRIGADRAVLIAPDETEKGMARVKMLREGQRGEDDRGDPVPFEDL

Data taken from ChEMBL document CHEMBL3988442, “University of Dundee, Small-Polar-MMV Screening Library” (2021).

CoaBC: 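Enzyme assay of CoaBC with a phosphate dye (Biomol Green) read at 650 nm. Target: Coenzyme A biosynthesis protein CoaBC, Mycobacterium tuberculosis (UniProt P9WNZ1). Tested at 30 µM. Direction is inferred from only a few compounds that gave an IC50; most scored high, so higher reads as stronger inhibition. Most strong results did not repeat in a second test. About 67,000 compounds were tested under these conditions; 0.06% (about 40) showed 50% or more at least once.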
Pks13 thioesterase: 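Enzyme assay of the thioesterase domain of polyketide synthase 13; the read-out is not stated. Target: Polyketide synthase Pks13, Mycobacterium tuberculosis (UniProt I6X8D2). Compounds at 30 µM. Higher reads as stronger inhibition (inferred from which compounds were picked for retests). Size under these conditions: about 67,000 compounds, about 300 of them at 50% or above in at least one test.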
MtTrpRS: 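Enzyme assay of tryptophanyl-tRNA synthetase; the read-out is not stated. Target: Tryptophan-tRNA ligase, Mycobacterium tuberculosis (UniProt P9WFT3). Tested at 10 µM. Direction is not recorded; retested compounds ran higher, which suggests that high means inhibition. Of about 65,000 compounds tested this way, about 64 (0.098%) reached 50% or more in at least one test.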
LiHisRS: 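Histidine-tRNA ligase, Leishmania infantum (UniProt A4I591). Enzyme assay of histidyl-tRNA synthetase; the read-out is not stated. Concentration: 30 µM. Direction is inferred from retests: higher values go with stronger inhibition. The assay is labelled LdHisRS but filed under L. infantum. About 69,000 compounds were tested under these conditions; 0.6% (about 410) showed 50% or more at least once.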

Each number is a percent effect as filed. How 0% and 100% were set is not recorded. Most values in the screen are low, and negative values occur. The compounds are a random part of those screened. A dash means the value is not listed here; it may have been measured.

| structure | CoaBC | Pks13 thioesterase | MtTrpRS | LiHisRS |
|---|---|---|---|---|
| `Cc1ccc(CNCC2CCCN2c2cccnn2)s1` (configuration not stated) | -4.29 | -24.92 | 1.988 | 20.51 |
| `O=C(Cc1ccon1)NC1CCCN(c2ccccc2F)C1=O` (configuration not stated) | 1.882 | 0.5811 | 3.52 | 20.48 |
| `CCNc1ncc(C(=O)N(C)C(C)c2ccc3c(c2)OCCO3)cn1` (configuration not stated) | 0.8631 | - | -1.051 | 14.52 |
| `COc1ccc(F)c(CN(CCCn2ccnc2)Cc2ccc(C)s2)c1` | 11.92 | - | 23.13 | 28.42 |
| `O=C(NCCn1ccnc1)N1CCN(c2nccs2)CC1` | 1.054 | -26.39 | -8.144 | 0 |
| `COc1ccc(CNCC2CN(C3CC3)CCO2)cc1C` (configuration not stated) | 6.416 | -8.079 | -0.9331 | 11.96 |
| `O=S(=O)(CC1CCOCC1)NCc1ncc(-c2ccccc2)o1` | 0.8065 | -6.438 | -6.416 | 7.018 |
| `CSCC(=O)N1CCc2c(cnc(C)c2-c2noc(-c3cc[nH]n3)n2)C1` | 0.2296 | -10.58 | -1.755 | 2.041 |
| `CCN1CCC(N2CCC(c3nc(C)cc(C)n3)C2)CC1` (configuration not stated) | -4.294 | 10.64 | -4.197 | 11.35 |
| `Cc1cc(NC(=O)C2CCCN(C(=O)NCC(C)C)C2)ccn1` (configuration not stated) | 2.663 | -1.129 | 2.467 | 19.57 |
| `CCOCC1CN(c2ccncn2)Cc2cnn(CC)c21` (configuration not stated) | 1.261 | -9.99 | 0.6975 | 9.091 |
| `CCC(=O)Nc1nnc2n(Cc3cccc(OC)c3)[nH]c(C)c1-2` | -29.95 | -11.13 | 2.184 | 25.84 |
| `CCNC(=O)Cc1ccc(NC(=O)NC(CC)c2ccncc2)cc1` (configuration not stated) | -0.609 | -13.02 | 4.438 | 16.13 |
| `Cn1cc(CC2CCN(C(=O)NCCc3cccc(O)c3)C2)cn1` (configuration not stated) | 3.374 | -22.32 | 3.708 | 5.714 |
| `O=C(c1ccc(Cn2cc(Br)cn2)cc1)N1CCCC1` | 6.925 | -7.455 | 15.16 | 32.35 |
| `COCCc1noc(CN(C)C(=O)C(C)N2CCc3ccccc3C2)n1` (configuration not stated) | -0.4819 | -22.43 | 4.466 | 20.88 |
| `COc1cc(CNC2CCCc3c2cnn3C)cc(OC)c1` (configuration not stated) | 7.473 | -9.77 | 2.113 | 19.05 |
| `NC(=O)c1csc(C(=O)N2CCCC(n3cccn3)C2)c1` (configuration not stated) | -8.579 | -15.63 | 8.915 | 15.38 |
| `Cc1ccc(CN2CCCN(Cc3cscn3)CC2)cc1` | -24.84 | -11.45 | -0.2441 | 24.79 |
| `CC(C)CN1CCCn2nc(CNC(=O)CN3CCOC3=O)cc2C1` | 6.754 | 1.643 | 9.071 | 10.53 |
| `CSc1ncc(C(=O)N2C[C@H]3CC[C@@H]2CN(S(=O)(=O)N(C)C)C3)cn1` | -4.551 | -12.58 | 0.7807 | 19.35 |
| `O=C1CC(c2ccc(CO)o2)c2cnn(Cc3ccco3)c2N1` (configuration not stated) | 2.058 | 1.762 | -1.089 | 16.3 |
| `Cc1cccc(CN2CCc3[nH]nc(C(=O)N4CCOCC4)c3C2)n1` | - | -10.31 | 0.7551 | 8.621 |
| `CNCCN1C(=O)CC[C@H]2CN(c3cnc4ccccc4n3)CC[C@H]21` | 1.863 | 10.61 | -4.486 | 25.83 |
| `CC(C)c1nnc(CNc2ccc(SC(F)(F)F)cc2)o1` | -2.899 | -31.16 | 10.18 | 1.01 |
| `Cc1ncnc2c1CCN(C(=O)Cc1cccc(F)c1)CC2` | - | -32.37 | 1.187 | 25.86 |
| `Cc1nn(CN(CC2CCOC2)C2CC2)c(=O)c2ccccc12` (configuration not stated) | 5.897 | -9.74 | -0.07886 | 11.86 |
| `O=C(c1ccco1)N1CCCC2(CN(Cc3ccsc3)CCO2)C1` (configuration not stated) | -0.3226 | -26.77 | 1.208 | 13.89 |
| `CCOc1ncccc1NC(=O)NCC(C)O` (configuration not stated) | 4.724 | -0.6666 | -1.032 | 13.56 |
| `CCN(CC)C(=O)c1ccc(CNc2cncc(-n3cccn3)n2)cc1` | 3.584 | -7.791 | 14.65 | 11.54 |
| `O=C(NCCCNc1cccnc1)c1ccc2nccn2c1` | 3.163 | 6.842 | 5.592 | 24.44 |
| `CCOCC1CN(S(C)(=O)=O)Cc2cnn(C)c21` (configuration not stated) | 5.711 | - | -0.9444 | 15.09 |
| `CC(C)CN(C(=O)Nc1cccnc1)C1CC1` | 1.24 | -1.191 | 0.2172 | -0.8929 |
| `Cc1cc(C)n(CCCNC(=O)[C@@H](C)NC(=O)OC(C)(C)C)n1` | 4.453 | -29.72 | -2.648 | 17.14 |
| `CCOCCN1CCO[C@H]2[C@H](OCc3ccccn3)CC[C@@H]21` | 3.448 | 0.4599 | -9.076 | 24 |
| `N#Cc1cccc(N2CCOC3(CNCCOC3)C2)n1` (configuration not stated) | -16.47 | 9.75 | 5.732 | 22.39 |
| `O=C(CN1CCN(c2ccc3nncn3n2)CC1)NC1CCCC1` | -5.263 | 1.909 | 1.484 | 13.21 |
| `CC(C)N(C)Cc1nnc2n1CCCN(C(=O)C1CCCO1)C2` (configuration not stated) | - | -2.13 | -5.07 | 12.07 |
| `CC(=O)NCCNc1nc(C2CCCC2)nc2c1cnn2C` | 0.8485 | 0.1628 | -0.8081 | 4.839 |
| `CC1CN(Cc2cc(C#N)ccc2F)CCN1Cc1nccn1C` (configuration not stated) | 0.6227 | -13.68 | 0.2903 | 9.174 |
| `Cc1nn(C)c(Cl)c1C1CCCN1C(=O)c1cccn1C` (configuration not stated) | 6.087 | -7.637 | -6.862 | 0 |
| `COCC1CCCCN1C(=O)c1cc(Cn2ccc3ccccc32)[nH]n1` (configuration not stated) | 0.5076 | -24.06 | 2.776 | 31.76 |
| `Cc1nc(CN)cc(NCc2ccccc2-n2cncn2)n1` | 2.155 | -50.76 | -1.135 | 3.797 |
| `Fc1ccc(CN2CCC3(CCCN(c4nncs4)C3)C2)cc1` (configuration not stated) | -30.84 | 15.99 | -5.183 | 3.947 |
| `CC(C)N1CCC(O)(CNC(=O)CC2OCCc3ccccc32)CC1` (configuration not stated) | -7.229 | -25.97 | 1.911 | 7.463 |
| `Cc1cc(=O)[nH]c(SC(C)C(=O)N2CCC(NS(C)(=O)=O)CC2)n1` (configuration not stated) | 0.7335 | -23.94 | -0.7452 | 16.44 |
| `N#Cc1c2n(c3c(=O)[nH]cnc13)CCCCC2` | 1.077 | 0.0659 | -7.444 | 3.279 |
| `CNC(=O)C1(N(C)CCc2ccccc2)Cc2ccccc2C1` | 6.318 | -6.133 | 12.76 | 17.54 |
| `CCc1noc(CN(C)C(=O)C(C)(C)Oc2cccc(Cl)c2)n1` | -3.099 | 29.57 | 5.202 | 5.479 |
| `O=C(NC1COC2(CCN(CC3CCC3)CC2)C1)c1ccccn1` (configuration not stated) | -6.947 | -14.27 | 0.3984 | 6.195 |

The last 5 entries again:

Result for Cc1cc(=O)[nH]c(SC(C)C(=O)N2CCC(NS(C)(=O)=O)CC2)n1 (configuration not stated) was CoaBC: 0.7335%; Pks13 thioesterase: -23.94%; MtTrpRS: -0.7452%; LiHisRS: 16.44%.
Result for N#Cc1c2n(c3c(=O)[nH]cnc13)CCCCC2 was CoaBC: 1.077%; Pks13 thioesterase: 0.0659%; MtTrpRS: -7.444%; LiHisRS: 3.279%.
Result for CNC(=O)C1(N(C)CCc2ccccc2)Cc2ccccc2C1 was CoaBC: 6.318%; Pks13 thioesterase: -6.133%; MtTrpRS: 12.76%; LiHisRS: 17.54%.
Result for CCc1noc(CN(C)C(=O)C(C)(C)Oc2cccc(Cl)c2)n1 was CoaBC: -3.099%; Pks13 thioesterase: 29.57%; MtTrpRS: 5.202%; LiHisRS: 5.479%.
Result for O=C(NC1COC2(CCN(CC3CCC3)CC2)C1)c1ccccn1 (configuration not stated) was CoaBC: -6.947%; Pks13 thioesterase: -14.27%; MtTrpRS: 0.3984%; LiHisRS: 6.195%.